Where a name gives a salt, the structure may show the parent alone. Some of the results follow. Most entries show no effect beyond the scatter of the controls.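 Using flow cytometry, the assay measures the median γH2AX antibody signal in S-phase Reh cells (a human leukemia line). Each score is the number of standard deviations from the median difference of paired plate sets. Candidate hits scored above 2.5; compounds scoring below -2 lowered MK1775-induced damage.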
System: Reh
Assay: Z' of S-phase gammaH2AX difference (drug + MK1775 minus drug alone) (Z-score); higher = stronger synergistic S-phase DNA damage with MK1775
Settings: MK1775 concentration 400 nM; first compound 10 µM; 4 h

Compound	Z' of S-phase gammaH2AX difference (Z-score)
CCCS(=O)(=O)Nc1ccc(F)c(C(=O)c2c[nH]c3ncc(-c4ccc(Cl)cc4)cc23)c1F [Vemurafenib (PLX4032)] + C=CCn1c(=O)c2cnc(Nc3ccc(N4CCN(C)CC4)cc3)nc2n1-c1cccc(C(C)(C)O)n1 [MK1775]	inactive: -0.0628
CCCCCCCCCCC/C=C\C(C)(C)/C=C\CCCC(=O)O [7,7-Dimethyl-(5Z,8Z)-eicosadienoic acid] + C=CCn1c(=O)c2cnc(Nc3ccc(N4CCN(C)CC4)cc3)nc2n1-c1cccc(C(C)(C)O)n1 [MK1775]	inactive: 0.338
CC(C)NCC(O)COc1cccc2ccccc12 (centres undefined) [(?)-Propranolol hydrochloride] + C=CCn1c(=O)c2cnc(Nc3ccc(N4CCN(C)CC4)cc3)nc2n1-c1cccc(C(C)(C)O)n1 [MK1775]	inactive: 0.247
CC(C)C[C@H](NC(=O)[C@H]1O[C@@H]1C(=O)O)C(=O)NCCCCN=C(N)N + C=CCn1c(=O)c2cnc(Nc3ccc(N4CCN(C)CC4)cc3)nc2n1-c1cccc(C(C)(C)O)n1 [MK1775]	inactive: -0.619
CN(C)Cc1ccc(-c2nc3cccc4c3n2CCNC4=O)cc1 + C=CCn1c(=O)c2cnc(Nc3ccc(N4CCN(C)CC4)cc3)nc2n1-c1cccc(C(C)(C)O)n1 [MK1775]	inactive: 0.0821
Cc1[nH]c(/C=C2\C(=O)Nc3ccc(S(=O)(=O)N(C)c4cccc(Cl)c4)cc32)c(C)c1C(=O)N1CCN(C)CC1 + C=CCn1c(=O)c2cnc(Nc3ccc(N4CCN(C)CC4)cc3)nc2n1-c1cccc(C(C)(C)O)n1 [MK1775]	inactive: -0.427
CC1(C)NC(=O)N(c2ccc([N+](=O)[O-])c(C(F)(F)F)c2)C1=O [Nilutamide] + C=CCn1c(=O)c2cnc(Nc3ccc(N4CCN(C)CC4)cc3)nc2n1-c1cccc(C(C)(C)O)n1 [MK1775]	inactive: 0.155
Oc1c2ccccc2c2c3c(cccc13)N=N2 + C=CCn1c(=O)c2cnc(Nc3ccc(N4CCN(C)CC4)cc3)nc2n1-c1cccc(C(C)(C)O)n1 [MK1775]	inactive: -1.28
C=C(C)[C@@H]1CC=C(C(=O)O)CC1 [(-)-Perillic acid] + C=CCn1c(=O)c2cnc(Nc3ccc(N4CCN(C)CC4)cc3)nc2n1-c1cccc(C(C)(C)O)n1 [MK1775]	inactive: -0.18
COC(=O)[C@@H]1[C@H]2C[C@H]3c4[nH]c5ccccc5c4CCN3C[C@@H]2CC[C@@H]1O [Yohimbine hydrochloride] + C=CCn1c(=O)c2cnc(Nc3ccc(N4CCN(C)CC4)cc3)nc2n1-c1cccc(C(C)(C)O)n1 [MK1775]	inactive: -0.185
O=C1CCc2cc(OCCCCc3nnnn3C3CCCCC3)ccc2N1 [Cilostazol] + C=CCn1c(=O)c2cnc(Nc3ccc(N4CCN(C)CC4)cc3)nc2n1-c1cccc(C(C)(C)O)n1 [MK1775]	inactive: -0.575
O=C(O)[C@H]1C[C@H](C(=O)O)N1 (relative stereo) [trans-Azetidine-2,4-dicarboxylic acid] + C=CCn1c(=O)c2cnc(Nc3ccc(N4CCN(C)CC4)cc3)nc2n1-c1cccc(C(C)(C)O)n1 [MK1775]	inactive: -0.291
O=P(O)(O)C(Cl)(Cl)P(=O)(O)O [Clodronic acid] + C=CCn1c(=O)c2cnc(Nc3ccc(N4CCN(C)CC4)cc3)nc2n1-c1cccc(C(C)(C)O)n1 [MK1775]	inactive: -0.935
N#C/C(=C/c1ccc(O)c(O)c1)C(=O)N1CCc2ccccc21 [Tyrphostin AG 528] + C=CCn1c(=O)c2cnc(Nc3ccc(N4CCN(C)CC4)cc3)nc2n1-c1cccc(C(C)(C)O)n1 [MK1775]	inactive: 0.0541
C[C@@H](NC(=O)/C(C#N)=C/c1ccc(O)c(O)c1)c1ccccc1 [Tyrphostin AG 527] + C=CCn1c(=O)c2cnc(Nc3ccc(N4CCN(C)CC4)cc3)nc2n1-c1cccc(C(C)(C)O)n1 [MK1775]	inactive: -0.129
Nc1ccccc1NC(=O)c1ccc(CNC(=O)OCc2cccnc2)cc1 [Entinostat (MS-275, SNDX-275)] + C=CCn1c(=O)c2cnc(Nc3ccc(N4CCN(C)CC4)cc3)nc2n1-c1cccc(C(C)(C)O)n1 [MK1775]	inactive: -0.169
O=C1NCN(c2ccccc2)C12CCN(CCCC(c1ccc(F)cc1)c1ccc(F)cc1)CC2 [Fluspirilene] + C=CCn1c(=O)c2cnc(Nc3ccc(N4CCN(C)CC4)cc3)nc2n1-c1cccc(C(C)(C)O)n1 [MK1775]	inactive: -0.0704

A different layout for some results above.
Compound,Z' of S-phase gammaH2AX difference (Z-score)
Oc1c2ccccc2c2c3c(cccc13)N=N2 + C=CCn1c(=O)c2cnc(Nc3ccc(N4CCN(C)CC4)cc3)nc2n1-c1cccc(C(C)(C)O)n1 [MK1775],inactive: -1.28
C=C(C)[C@@H]1CC=C(C(=O)O)CC1 [(-)-Perillic acid] + C=CCn1c(=O)c2cnc(Nc3ccc(N4CCN(C)CC4)cc3)nc2n1-c1cccc(C(C)(C)O)n1 [MK1775],inactive: -0.18

(cont.)

Compound	Z' of S-phase gammaH2AX difference (Z-score)
COc1cccc(OC)c1OCCNCC1COc2ccccc2O1 (centres undefined) [WB-4101 hydrochloride] + C=CCn1c(=O)c2cnc(Nc3ccc(N4CCN(C)CC4)cc3)nc2n1-c1cccc(C(C)(C)O)n1 [MK1775]	inactive: 1.05
O=[N+]([O-])c1cccc2c(Br)[nH]nc12 [3-Bromo-7-nitroindazole] + C=CCn1c(=O)c2cnc(Nc3ccc(N4CCN(C)CC4)cc3)nc2n1-c1cccc(C(C)(C)O)n1 [MK1775]	inactive: -0.0635
O=C(O)CCC(=O)N1CCC[C@H]1C(=O)O [N-Succinyl-L-proline] + C=CCn1c(=O)c2cnc(Nc3ccc(N4CCN(C)CC4)cc3)nc2n1-c1cccc(C(C)(C)O)n1 [MK1775]	inactive: -1.36
N=C(N)NC(=O)c1nc(Cl)c(N)nc1N [Amiloride hydrochloride] + C=CCn1c(=O)c2cnc(Nc3ccc(N4CCN(C)CC4)cc3)nc2n1-c1cccc(C(C)(C)O)n1 [MK1775]	inactive: -0.1
CN(C)CC[C@H](CSc1ccccc1)Nc1ccc(S(=O)(=O)NC(=O)c2ccc(N3CCN(Cc4ccccc4-c4ccc(Cl)cc4)CC3)cc2)cc1[N+](=O)[O-] + C=CCn1c(=O)c2cnc(Nc3ccc(N4CCN(C)CC4)cc3)nc2n1-c1cccc(C(C)(C)O)n1 [MK1775]	inactive: 1.62
CC(=O)SCC[N+](C)(C)C [Acetylthiocholine chloride] + C=CCn1c(=O)c2cnc(Nc3ccc(N4CCN(C)CC4)cc3)nc2n1-c1cccc(C(C)(C)O)n1 [MK1775]	inactive: -0.575
CC(C)COC(=O)OCN1C(=O)CN(CCN2CC(=O)N(COC(=O)OCC(C)C)C(=O)C2)CC1=O [Sobuzoxane] + C=CCn1c(=O)c2cnc(Nc3ccc(N4CCN(C)CC4)cc3)nc2n1-c1cccc(C(C)(C)O)n1 [MK1775]	inactive: 1.82
NS(=O)(=O)c1cc2c(cc1Cl)N=CNS2(=O)=O [Chlorothiazide] + C=CCn1c(=O)c2cnc(Nc3ccc(N4CCN(C)CC4)cc3)nc2n1-c1cccc(C(C)(C)O)n1 [MK1775]	inactive: 1.09
CN[C@H](CC(C)C)C(=O)N[C@H]1C(=O)N[C@@H](CC(N)=O)C(=O)N[C@H]2C(=O)N[C@H]3C(=O)N[C@H](C(=O)N[C@H](C(=O)O)c4cc(O)cc(O)c4-c4cc3ccc4O)[C@H](O)c3ccc(c(Cl)c3)Oc3cc2cc(c3O[C@@H]2O[C@H](CO)[C@@H](O)[C@H](O)[C@H]2O[C@H]2C[C@](C)(N)[C@H](O)[C@H](C)O2)Oc2ccc(cc2Cl)[C@H]1O [Vancomycin hydrochloride from Streptomyces orientalis] + C=CCn1c(=O)c2cnc(Nc3ccc(N4CCN(C)CC4)cc3)nc2n1-c1cccc(C(C)(C)O)n1 [MK1775]	inactive: 0.352
NC(=O)c1ncn([C@@H]2O[C@H](CO)[C@@H](O)[C@H]2O)n1 [Ribavirin] + C=CCn1c(=O)c2cnc(Nc3ccc(N4CCN(C)CC4)cc3)nc2n1-c1cccc(C(C)(C)O)n1 [MK1775]	inactive: 1.47
Cn1c(=O)c2[nH]c(C3CCCC3)nc2n(C)c1=O [8-Cyclopentyl-1,3-dimethylxanthine] + C=CCn1c(=O)c2cnc(Nc3ccc(N4CCN(C)CC4)cc3)nc2n1-c1cccc(C(C)(C)O)n1 [MK1775]	inactive: 0.13
CC(C)COCC(CN(Cc1ccccc1)c1ccccc1)N1CCCC1 (centres undefined) [Bepridil hydrochloride] + C=CCn1c(=O)c2cnc(Nc3ccc(N4CCN(C)CC4)cc3)nc2n1-c1cccc(C(C)(C)O)n1 [MK1775]	inactive: -0.307
NS(=O)(=O)c1cc(C(=O)O)c(NCc2ccco2)cc1Cl [Furosemide] + C=CCn1c(=O)c2cnc(Nc3ccc(N4CCN(C)CC4)cc3)nc2n1-c1cccc(C(C)(C)O)n1 [MK1775]	inactive: -0.44
NC(=S)c1ccc[n+]([C@@H]2O[C@@H](COP(=O)([O-])OP(=O)(O)OC[C@H]3O[C@@H](n4cnc5c(N)ncnc54)C(OP(=O)(O)O)[C@H]3O)C(O)C2O)c1 (some centres undefined) [Thio-NADP sodium] + C=CCn1c(=O)c2cnc(Nc3ccc(N4CCN(C)CC4)cc3)nc2n1-c1cccc(C(C)(C)O)n1 [MK1775]	inactive: 0.393
O=C(O)C(=O)O.[NH-]C1CCCCC1[NH-].[Pt+2] (centres undefined) [Oxaliplatin (Eloxatin)] + C=CCn1c(=O)c2cnc(Nc3ccc(N4CCN(C)CC4)cc3)nc2n1-c1cccc(C(C)(C)O)n1 [MK1775]	inactive: -0.0983
CCc1cncnc1N1CCN(Cc2nc3ccc(C(F)(F)F)cc3[nH]2)CC1 + C=CCn1c(=O)c2cnc(Nc3ccc(N4CCN(C)CC4)cc3)nc2n1-c1cccc(C(C)(C)O)n1 [MK1775]	inactive: 0.205
NC(N)=NCCNS(=O)(=O)c1cccc2cnccc12 [HA-1004 hydrochloride] + C=CCn1c(=O)c2cnc(Nc3ccc(N4CCN(C)CC4)cc3)nc2n1-c1cccc(C(C)(C)O)n1 [MK1775]	inactive: 1.42

From the supplement of paper PMC5355238
